From publication PMC5689726
These are yes or no findings as the source states them, for the method shown. Binding seen in cells or lysates may run through a third protein. Some binding calls cover weakened binding; strength is not graded here.

Protein sequences, listed by entry. Tags and fused reporters are not part of them.
UniProt P42685: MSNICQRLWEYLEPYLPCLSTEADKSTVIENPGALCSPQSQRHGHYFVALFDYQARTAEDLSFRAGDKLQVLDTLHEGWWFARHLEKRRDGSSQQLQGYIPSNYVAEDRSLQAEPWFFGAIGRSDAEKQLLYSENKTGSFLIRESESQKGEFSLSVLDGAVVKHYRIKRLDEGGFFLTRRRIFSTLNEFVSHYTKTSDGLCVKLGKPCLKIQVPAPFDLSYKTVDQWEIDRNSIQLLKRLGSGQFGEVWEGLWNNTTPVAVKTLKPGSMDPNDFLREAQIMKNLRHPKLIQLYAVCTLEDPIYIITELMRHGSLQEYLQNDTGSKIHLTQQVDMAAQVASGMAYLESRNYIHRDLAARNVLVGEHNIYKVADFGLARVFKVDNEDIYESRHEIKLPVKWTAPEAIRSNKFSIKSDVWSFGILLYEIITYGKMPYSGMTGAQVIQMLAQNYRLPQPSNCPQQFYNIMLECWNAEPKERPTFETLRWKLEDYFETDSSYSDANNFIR
UniProt Q9NPD8: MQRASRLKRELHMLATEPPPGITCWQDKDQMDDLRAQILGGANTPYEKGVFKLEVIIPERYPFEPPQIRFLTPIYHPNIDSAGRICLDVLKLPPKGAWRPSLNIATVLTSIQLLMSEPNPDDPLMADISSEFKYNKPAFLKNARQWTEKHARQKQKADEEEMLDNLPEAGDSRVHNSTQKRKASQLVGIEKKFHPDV

What was measured:
[1] = molecular target: HA-BRCA1 wild-type (human) (UniProt P38398); test: co-IP; HA-BRCA1 WT or deletion mutants transfected into 293T cells, pulled down with an anti-HA antibody, western blot with an anti-Rak antibody
[2] = molecular target: BRCA1 (human (endogenous in MCF10A)) (UniProt P38398); test: co-IP; lysates from MCF10A cells (modified RIPA buffer) immunoprecipitated with an anti-Rak or anti-BRCA1 antibody, immunoblotted with an anti-BRCA1 or anti-Rak antibody; endogenous proteins
[3] = molecular target: BRCA1 Y1552F (HA-tagged), expressed in HCC1937 cells (human) (UniProt P38398); test: co-IP; lysates from HCC1937 cells expressing wild-type or Y1552F BRCA1 immunoprecipitated with an anti-HA antibody, western blot with an anti-UBE2T antibody; BRCA1 levels normalized before pull-down
[4] = molecular target: BRCA1 (human (endogenous in MCF10A)) (UniProt P38398); test: co-IP; lysates from control or Rak-depleted (siRNA) MCF10A cells immunoprecipitated with an anti-BRCA1 antibody or a mouse IgG, western blot; BRCA1 levels normalized before pull-down

binding [1] | binding [2] | binding [3] | binding [4] | Substance
binds | binds |  |  | Fyn-related kinase (Frk)/Rak (from UniProt P42685 1-505)
 |  | binds | binds | ubiquitin conjugating enzyme 2T (UBE2T) (from UniProt Q9NPD8 1-197)
